# Measurements reported in PubChem BioAssay AID540276 (National Center for Advancing Translational Sciences (NCATS), 2011).
# Where “and” joins values, the source holds several entries; their conditions need not be identical. Equal entries are not always repeated. About 5,400 (1.8%) of roughly 300,000 compounds were called active. Inconclusive means that the source gave no clear call. Such entries were picked first, then a sample of the others. Calls follow the shape of the full dose curve; tested in HEK293 cells. Where the call is inconclusive, the potency comes from a doubtful curve fit.
# Assay: qHTS for inhibitors of binding or entry into cells for Marburg Virus
# Conditions: Marburg virus pseudotyped entry inhibition, cell reporter; series mostly up to 37.8 µM
# Potency is read from the fitted curve at half-maximal effect.
row,SMILES,Potency
1,CC1CCCN(CCSc2ccc(Cl)cc2)C1 (centres undefined),inactive
2,Cc1ccccc1OCc1nc2c3cnn(-c4cccc(F)c4)c3ncn2n1,"inconclusive: 3.16 µM [inhibitor, single point]"
3,C/C(=N/NC(=O)Cc1cccc2ccccc12)c1cccs1,"inconclusive: 28.2 µM [inhibitor, single point]"
4,CC(CN1CCOCC1)OC(=O)c1cccc(Br)c1 (centres undefined),inactive
5,O=[N+]([O-])c1ccccc1N(CC1CO1)S(=O)(=O)c1ccccc1 (centres undefined),"inconclusive: 35.5 µM [inhibitor, single point]"
6,O=C(Nc1ccc(NC(=O)c2cc3ccccc3o2)cc1)c1ccco1,inactive
7,Cc1ccc(C(=O)Nc2cccnc2Cl)cc1Cl,"inconclusive: 1.78 µM [activator, single point]"
8,CC(=O)NCCC(=O)Nc1cc(S(=O)(=O)Nc2ccc(Cl)cc2)ccc1N1CCCC1,inactive
9,Cn1c(=O)n(C)c2cc([N+](=O)[O-])c(N3CCN(C(=O)c4ccccc4Cl)CC3)cc21,"inconclusive: 16.4 µM [inhibitor, partial curve]"
10,Cc1ccc(C(CC(=O)O)NC(=O)CCNC(=O)c2ccco2)cc1 (centres undefined),inactive
11,O=C(Nc1ccc(Cl)cc1N1CCOCC1)C1CCCCC1,inactive
12,COc1ccc(NC(=O)c2cc3ccccc3o2)cc1S(=O)(=O)N1CCCCC1,"inconclusive: 35.5 µM [inhibitor, single point]"
13,COc1cccc(C(=O)Nc2cc3c(cc2C(C)=O)OCCO3)c1,"inconclusive: 7.08 µM [activator, full curve, poor fit]"
14,O=C(COC(=O)c1sc2ccccc2c1Cl)NC1CCCCC1,inactive
15,Cc1cc(S(=O)(=O)Nc2ccc(C(=O)N3CCN(c4ccccc4O)CC3)cc2)ccc1F,"inconclusive: 12.6 µM [inhibitor, partial curve]"
16,CCCCCCCCNC(=O)CCNC(=O)c1ccc(C(C)(C)C)cc1,"inconclusive: 15.8 µM [inhibitor, single point]"
17,CC1CCCCN1C(=O)NC12CC3CC(CC(C3)C1)C2 (centres undefined),inactive
18,Cc1nc2sccn2c(=O)c1CCN1CCC(=C(c2ccccc2)c2ccc(F)cc2)CC1,"inconclusive: 18.4 µM [inhibitor, partial curve, poor fit] and inconclusive: 18.3 µM [inhibitor, partial curve, poor fit]"
19,O=C(NCCc1ccccc1)C1CCCN(C(=O)Nc2ccc(F)cc2)C1 (centres undefined),"inconclusive: 23.1 µM [inhibitor, single point]"
20,O=C(COc1ccccc1)N(Cc1nnc(-c2ccccc2Cl)o1)C1CC1,inactive
21,N#CCCn1cnc2c(=S)nc[nH]c21,inactive
22,Cc1nn2c(-c3ccccc3)ccnc2c1-c1ccccc1,"inconclusive: 32.6 µM [inhibitor, single point]"

row,SMILES,Potency
1,COc1cc(OC)cc(C(=O)NNC(=O)CCC(=O)c2cc(C)sc2C)c1,"inconclusive: 1.26 µM [activator, single point]"
2,COCc1ccc(CN2CCCC(C(=O)c3sccc3C)C2)o1 (centres undefined),inactive
3,N=c1oc2cc(O)ccc2cc1C(=O)Nc1nc2ccccc2s1,"inconclusive: 0.316 µM [activator, partial curve, poor fit]"
4,CC1CCCCN1CCNC(=O)c1ccc2c(=O)n(Cc3ccc(Cl)cc3)c(=S)[nH]c2c1 (centres undefined),"inconclusive: 11.2 µM [inhibitor, partial curve, poor fit]"
5,c1ccc2c(c1)N1CCN=C1N2CCN1CCCCC1,"inconclusive: 5.01 µM [inhibitor, partial curve, poor fit]"
6,Clc1ccc(-c2nc3nc4ccccc4nc3n2Cc2ccco2)cc1,"inconclusive: 2.24 µM [activator, partial curve, poor fit]"
7,O=C(COc1ncnc2ccc(Br)cc12)NCc1ccco1,"inconclusive: 7.94 µM [inhibitor, partial curve]"
8,COC(=O)c1oc2ccc(Cl)cc2c1N,inactive
9,CCOC(=O)c1c(-c2ccccc2)csc1NC(=O)C(C)NCc1ccco1 (centres undefined),"inconclusive: 12.6 µM [inhibitor, partial curve, poor fit]"
10,CC(C)c1ccc(C(C(=O)NC2CCCCC2)N(C(=O)c2csnn2)C2CC2)cc1 (centres undefined),active: 6.31 µM
11,Cc1c(C(=O)OC2CCC(C)CC2)[nH]c2c1C(=O)CCC2 (centres undefined),"inconclusive: 3.66 µM [activator, partial curve, poor fit]"
12,CC(C)CC(=O)Nc1ccc2c(c1)oc1ccccc12,"inconclusive: 11.2 µM [inhibitor, single point]"
13,CN1CCN(c2ccc([N+](=O)[O-])cc2C(=O)c2ccc(Cl)cc2)CC1,"inconclusive: 3.55 µM [inhibitor, full curve]"
14,CCN(CC(=O)NCc1ccncc1)S(=O)(=O)c1ccccc1,inactive
15,COc1ccc(C(=O)/C=C/c2ccc(OC)c(Cn3nnc4ccccc43)c2)cc1,"inconclusive: 35.5 µM [inhibitor, single point]"
16,COc1ccc(CN(C)C(=O)c2ccc(NS(=O)(=O)c3ccc(F)cc3)cc2)c(OC)c1,"inconclusive: 6.31 µM [activator, single point]"
17,CCc1ccc2c(c1)C(c1ccc([N+](=O)[O-])cc1)=NNC(c1ccc(F)cc1)=N2,"inconclusive: 0.58 µM [activator, single point]"
18,COc1ccc(C(=O)Nc2nc(-c3cccs3)cs2)cc1,"inconclusive: 12.6 µM [inhibitor, partial curve, poor fit]"
19,COc1ccc(/C=C2\COc3ccccc3C2=O)c(OC)c1,"inconclusive: 12.6 µM [inhibitor, single point]"
20,Cc1ccc(S(=O)(=O)c2cn(CC(=O)Nc3cccc(Cl)c3)c3ccccc3c2=O)cc1,"inconclusive: 35.5 µM [inhibitor, single point]"
21,CCOc1ccc(C(=O)Nc2cc(-c3nc4cc(OC)ccc4o3)ccc2C)cc1[N+](=O)[O-],"inconclusive: 17.8 µM [activator, single point]"
22,Cc1ccc(C(=O)CSC2=C(C#N)[C@H](c3ccco3)C3=C(CCCC3=O)N2)cc1,"inconclusive: 13 µM [inhibitor, partial curve, poor fit]"

# Three structures from above, sorted by heavy-atom count, rising.
row,SMILES,Potency
8,COC(=O)c1oc2ccc(Cl)cc2c1N,inactive
11,Cc1c(C(=O)OC2CCC(C)CC2)[nH]c2c1C(=O)CCC2 (centres undefined),"inconclusive: 3.66 µM [activator, partial curve, poor fit]"
15,COc1ccc(C(=O)/C=C/c2ccc(OC)c(Cn3nnc4ccccc43)c2)cc1,"inconclusive: 35.5 µM [inhibitor, single point]"
